In article PMC7862700:
Only a part is listed here, and it is no random draw. At the low end of the ranking the order means little.

Tests used:
Assay in all cases: DAPPL (digital affinity profiling via proximity ligation, sequencing)
Conditions in all cases: 10 mM Tris-HCl pH 7.5, 50 mM NaCl, 1 mM DTT, 4% glycerol, room temperature, 30 min; GST-TFs on glutathione beads, 16-mer random dsDNA library, 0.1% …; high values mean tight binding; double strand, one strand shown; scale: fold enrichment (6-mer frequency, TF over GST control)
[1] = biological target: T1, ELK1 (UniProt P19419)
T1 sequence: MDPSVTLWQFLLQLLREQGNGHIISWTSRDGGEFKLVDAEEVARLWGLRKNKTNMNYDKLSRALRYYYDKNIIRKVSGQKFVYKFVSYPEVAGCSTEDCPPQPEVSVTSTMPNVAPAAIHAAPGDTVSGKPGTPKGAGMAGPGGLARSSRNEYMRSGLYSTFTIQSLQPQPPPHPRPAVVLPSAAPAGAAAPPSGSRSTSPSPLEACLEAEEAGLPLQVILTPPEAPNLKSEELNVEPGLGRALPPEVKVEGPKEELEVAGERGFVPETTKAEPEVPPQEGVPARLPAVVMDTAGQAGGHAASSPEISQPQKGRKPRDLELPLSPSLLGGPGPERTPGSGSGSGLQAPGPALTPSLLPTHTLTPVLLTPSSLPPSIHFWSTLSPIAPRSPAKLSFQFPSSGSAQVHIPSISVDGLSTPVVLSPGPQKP

[2] = biological target: T2, ELK3 (UniProt P41970)
T2 sequence: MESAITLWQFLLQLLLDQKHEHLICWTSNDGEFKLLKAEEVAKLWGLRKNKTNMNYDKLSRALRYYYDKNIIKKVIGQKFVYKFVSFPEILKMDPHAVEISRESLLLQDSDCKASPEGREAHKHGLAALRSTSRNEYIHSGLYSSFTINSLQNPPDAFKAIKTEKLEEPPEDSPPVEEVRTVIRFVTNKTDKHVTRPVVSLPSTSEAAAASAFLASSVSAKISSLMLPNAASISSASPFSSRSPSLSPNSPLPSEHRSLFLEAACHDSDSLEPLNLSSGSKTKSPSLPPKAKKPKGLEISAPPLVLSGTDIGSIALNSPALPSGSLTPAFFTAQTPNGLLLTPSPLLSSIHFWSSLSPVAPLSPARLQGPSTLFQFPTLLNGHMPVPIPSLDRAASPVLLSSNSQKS

[3] = biological target: T3, SPIC (UniProt Q8N5J4)
T3 sequence: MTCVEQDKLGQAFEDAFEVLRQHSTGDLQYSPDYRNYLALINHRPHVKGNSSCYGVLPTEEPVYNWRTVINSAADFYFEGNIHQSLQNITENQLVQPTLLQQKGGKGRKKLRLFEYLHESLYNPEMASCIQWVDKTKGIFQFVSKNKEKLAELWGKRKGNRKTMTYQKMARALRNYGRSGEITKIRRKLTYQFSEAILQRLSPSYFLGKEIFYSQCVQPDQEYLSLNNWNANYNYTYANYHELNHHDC

[4] = biological target: T4, ETS2 (UniProt P15036)
T4 sequence: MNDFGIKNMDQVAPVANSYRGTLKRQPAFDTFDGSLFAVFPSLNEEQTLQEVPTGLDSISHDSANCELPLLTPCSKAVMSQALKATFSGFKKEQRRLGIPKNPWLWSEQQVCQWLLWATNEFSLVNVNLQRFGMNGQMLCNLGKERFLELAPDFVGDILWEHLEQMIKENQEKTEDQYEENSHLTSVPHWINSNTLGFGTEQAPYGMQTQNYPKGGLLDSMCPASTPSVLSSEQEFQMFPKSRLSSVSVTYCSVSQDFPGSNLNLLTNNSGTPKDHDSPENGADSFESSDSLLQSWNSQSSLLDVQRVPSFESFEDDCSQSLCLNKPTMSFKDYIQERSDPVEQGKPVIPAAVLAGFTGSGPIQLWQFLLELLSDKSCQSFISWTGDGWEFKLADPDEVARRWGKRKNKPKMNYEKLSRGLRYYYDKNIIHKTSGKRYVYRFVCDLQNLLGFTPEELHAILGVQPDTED

[5] = biological target: T5, ETV3 (UniProt P41162-2)
T5 sequence: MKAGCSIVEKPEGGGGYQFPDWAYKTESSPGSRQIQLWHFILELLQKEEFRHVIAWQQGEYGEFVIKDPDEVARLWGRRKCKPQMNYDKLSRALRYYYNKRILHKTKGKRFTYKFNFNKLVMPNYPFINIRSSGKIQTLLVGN

Question: What does the source list for GGACCA?
Answer: binding signal [1]: 0.755; binding signal [2]: 0.82; binding signal [3]: 0.759; binding signal [4]: 0.763; binding signal [5]: 0.759

Question: How did the binding signal [1] turn out when ACAGGG was run?
Answer: The binding signal was 0.814.

Question: And the binding signal [2]?
Answer: The binding signal was 0.755.

Question: What about the binding signal [3] of the same sequence?
Answer: The binding signal was 0.642.

Question: What about the binding signal [4] of the same sequence?
Answer: Its binding signal is 0.788.

Question: What about the binding signal [5] of the same sequence?
Answer: The binding signal was 0.823.

Question: How did the binding signal [1] turn out when GAGCAA was run?
Answer: The binding signal was 0.732.

Question: And the binding signal [2]?
Answer: Its binding signal is 0.637.

Question: And the binding signal [3]?
Answer: The binding signal was 0.722.

Question: What about the binding signal [4] of the same sequence?
Answer: The binding signal was 0.726.

Question: And the binding signal [5]?
Answer: Its binding signal is 0.715.

Question: What does the source list for GACAAA?
Answer: binding signal [1]: 0.992; binding signal [2]: 0.902; binding signal [3]: 0.898; binding signal [4]: 0.952; binding signal [5]: 0.899

Question: Which binding signal [1] does the source give for CACGTC here?
Answer: The binding signal was 0.889.

Question: And the binding signal [2]?
Answer: The binding signal was 0.828.

Question: And the binding signal [3]?
Answer: The binding signal was 0.874.

Question: What about the binding signal [4] of the same sequence?
Answer: Its binding signal is 0.873.

Question: What about the binding signal [5] of the same sequence?
Answer: Its binding signal is 0.844.

Question: With CACCAG as the sequence, how does the binding signal [1] read?
Answer: The binding signal was 0.795.

Question: And the binding signal [2]?
Answer: The binding signal was 0.701.

Question: And the binding signal [3]?
Answer: The binding signal was 0.761.

Question: And the binding signal [4]?
Answer: Its binding signal is 0.726.

Question: And the binding signal [5]?
Answer: The binding signal was 0.75.

Question: GCATAA was tested. Which binding signal [1] did it give?
Answer: The binding signal was 0.854.

Question: What about the binding signal [2] of the same sequence?
Answer: Its binding signal is 0.769.

Question: What about the binding signal [3] of the same sequence?
Answer: The binding signal was 0.78.

Question: And the binding signal [4]?
Answer: The binding signal was 0.87.

Question: What about the binding signal [5] of the same sequence?
Answer: Its binding signal is 0.794.

Question: How did the binding signal [1] turn out when TAGGAC was run?
Answer: Its binding signal is 0.864.

Question: And the binding signal [2]?
Answer: The binding signal was 0.867.

Question: And the binding signal [3]?
Answer: Its binding signal is 0.811.

Question: What about the binding signal [4] of the same sequence?
Answer: Its binding signal is 0.929.

Question: And the binding signal [5]?
Answer: Its binding signal is 0.905.

Question: What does the source list for CATGGA?
Answer: binding signal [1]: 0.841; binding signal [2]: 0.853; binding signal [3]: 0.929; binding signal [4]: 0.9; binding signal [5]: 0.872

Question: For TGAGCA, which binding signal [1] is on record?
Answer: The binding signal was 0.875.

Question: What about the binding signal [2] of the same sequence?
Answer: The binding signal was 0.772.

Question: What about the binding signal [3] of the same sequence?
Answer: The binding signal was 0.91.

Question: What about the binding signal [4] of the same sequence?
Answer: Its binding signal is 0.876.

Question: And the binding signal [5]?
Answer: Its binding signal is 0.829.

Question: How did the binding signal [1] turn out when GGGTGC was run?
Answer: Its binding signal is 0.899.

Question: And the binding signal [2]?
Answer: The binding signal was 0.756.

Question: What about the binding signal [3] of the same sequence?
Answer: The binding signal was 0.584.

Question: What about the binding signal [4] of the same sequence?
Answer: The binding signal was 0.806.

Question: And the binding signal [5]?
Answer: The binding signal was 0.778.

Question: How did the binding signal [1] turn out when AACGGG was run?
Answer: Its binding signal is 0.697.

Question: What about the binding signal [2] of the same sequence?
Answer: The binding signal was 0.722.

Question: And the binding signal [3]?
Answer: The binding signal was 0.635.

Question: What about the binding signal [4] of the same sequence?
Answer: The binding signal was 0.692.

Question: What about the binding signal [5] of the same sequence?
Answer: The binding signal was 0.788.

Question: With GGCCCA as the sequence, how does the binding signal [1] read?
Answer: Its binding signal is 0.825.

Question: What about the binding signal [2] of the same sequence?
Answer: The binding signal was 0.747.

Question: What about the binding signal [3] of the same sequence?
Answer: Its binding signal is 0.902.

Question: What about the binding signal [4] of the same sequence?
Answer: Its binding signal is 0.824.

Question: What about the binding signal [5] of the same sequence?
Answer: The binding signal was 0.845.

Question: AGGTTA was tested. Which binding signal [1] did it give?
Answer: Its binding signal is 0.816.

Question: And the binding signal [2]?
Answer: Its binding signal is 0.799.

Question: And the binding signal [3]?
Answer: Its binding signal is 0.765.

Question: And the binding signal [4]?
Answer: Its binding signal is 0.816.

Question: And the binding signal [5]?
Answer: The binding signal was 0.817.

Question: CGTGTG was tested. Which binding signal [1] did it give?
Answer: Its binding signal is 0.404.

Question: And the binding signal [2]?
Answer: The binding signal was 0.352.

Question: And the binding signal [3]?
Answer: The binding signal was 0.395.

Question: What about the binding signal [4] of the same sequence?
Answer: Its binding signal is 0.476.

Question: And the binding signal [5]?
Answer: The binding signal was 0.411.

Question: Which binding signal [1] does the source give for GAGCAG here?
Answer: Its binding signal is 0.599.

Question: And the binding signal [2]?
Answer: The binding signal was 0.687.

Question: What about the binding signal [3] of the same sequence?
Answer: The binding signal was 0.593.

Question: And the binding signal [4]?
Answer: Its binding signal is 0.633.

Question: What about the binding signal [5] of the same sequence?
Answer: The binding signal was 0.588.

Question: With TCAGGA as the sequence, how does the binding signal [1] read?
Answer: The binding signal was 0.792.

Question: And the binding signal [2]?
Answer: Its binding signal is 0.808.

Question: What about the binding signal [3] of the same sequence?
Answer: Its binding signal is 0.841.

Question: And the binding signal [4]?
Answer: The binding signal was 0.851.

Question: What about the binding signal [5] of the same sequence?
Answer: The binding signal was 0.823.

Question: What does the source list for ACGCAA?
Answer: binding signal [1]: 0.946; binding signal [2]: 0.966; binding signal [3]: 0.897; binding signal [4]: 0.97; binding signal [5]: 0.929

Question: With GCAGAC as the sequence, how does the binding signal [1] read?
Answer: The binding signal was 0.723.

Question: And the binding signal [2]?
Answer: The binding signal was 0.636.

Question: And the binding signal [3]?
Answer: Its binding signal is 0.681.

Question: And the binding signal [4]?
Answer: The binding signal was 0.742.

Question: What about the binding signal [5] of the same sequence?
Answer: The binding signal was 0.712.

Question: Which binding signal [1] does the source give for GGGCAG here?
Answer: The binding signal was 0.614.

Question: And the binding signal [2]?
Answer: Its binding signal is 0.588.

Question: What about the binding signal [3] of the same sequence?
Answer: Its binding signal is 0.514.

Question: What about the binding signal [4] of the same sequence?
Answer: The binding signal was 0.582.

Question: And the binding signal [5]?
Answer: The binding signal was 0.623.
